Data on 24 compounds can be found in PubChem BioAssay AID218 (DTP/NCI, 2004).

The structures appear in SMILES notation. The list shows only some results of the screen, not a fair sample: it is rich in T/C values a quarter to a half above the control, in often repeated tests (any T/C) and in doses without a T/C. Further doses and runs are listed elsewhere. T/C gives the treated animals as a percentage of the vehicle group. Schedules are NCI's codes, read here as Q, the interval in days (D) or hours (H), X, the number of doses. Some T/C values are followed by the survivors on the day toxicity was checked, most often the fifth; where none is given, no animal had died by that day. Some doses were run more than once; their values stand side by side, smallest first. Additions like (4×) stand for listed records that agree. Some doses have a count of surviving animals in place of a T/C: the source holds a T/C of zero for them, seemingly a mark for toxic or unscored doses. Survivors were counted at the toxicity check, usually on the fifth day, unless a day is given; later deaths do not show.

For the assay, the system named is C57BL/6 mice, Adenocarcinoma 755 sc, tumor weight T/C. Briefly: NCI In Vivo Anticancer Drug Screen. Data for tumor model Adenocarcinoma 755 (subcutaneous) in C57BL/6 mice. Particulars: T/C endpoint: mean tumor weight, higher T/C = larger tumour; for T/C: evaluated on day 12. The method, then: The antitumor activity of compounds was measured in mice bearing transplantable tumors. Survival or tumor size were measured and the results are expressed as the measurement made in the treated group (T) divided by the measurement made in the vehicle treated control group (C). The tumor model used in this assay is Adenocarcinoma 755 (subcutaneous) in C57BL/6 mice

Setting [1] is: dose: 40.0 mg/kg/injection, schedule: Q01DX011 (ip), vehicle: saline.
Setting [2] is: dose: 20.0 mg/kg/injection, schedule: Q01DX011 (ip), vehicle: saline.
[3] abbreviates: dose: 50.0 mg/kg/injection, schedule: Q01DX011 (ip), vehicle: carboxymethylcellulose (CMC).
Setting [4] is: dose: 100.0 mg/kg/injection, schedule: Q01DX011 (ip), vehicle: saline.
Setting [5] is: dose: 75.0 mg/kg/injection, schedule: Q01DX011 (ip), vehicle: saline.
Where [6] appears, read: dose: 50.0 mg/kg/injection, schedule: Q01DX011 (ip), vehicle: saline.
Where [7] appears, read: dose: 15.0 mg/kg/injection, schedule: Q01DX011 (ip), vehicle: saline.

For `CNc1ncnc2c1cnn2C`, the survivor count was 6 of 10 under setting [1] and 0 of 10 (dose: 80.0 mg/kg/injection, schedule: Q01DX011 (ip), vehicle: saline).
Consider `CCOC(C)C(/C=N/NC(N)=S)=NNC(N)=S` (configuration not stated), for which the survivor count is listed as 1 of 10 (dose: 240.0 mg/kg/injection, schedule: Q01DX011 (ip), vehicle: saline) and 0 of 10 (dose: 480.0 mg/kg/injection, schedule: Q01DX011 (ip), vehicle: saline).
Turning to `O=[N+]([O-])c1ccc(CSc2ncnc3nc[nH]c23)cc1`, the survivor count (dose: 200.0 mg/kg/injection, schedule: Q01DX011 (ip), vehicle: saline) was 6 of 10.
For the compound `O=C(O)CCCc1ccc(N(CCCl)CCCl)cc1`, the survivor count (dose: 2.0 mg/kg/injection, schedule: Q01DX011 (ip), vehicle: saline) was 5 of 10.
`S=c1nc[nH]c2nc[nH]c12`: the T/C is, setting by setting: (dose: 0.5 mg/kg/injection, schedule: Q01DX011 (ip), vehicle: carboxymethylcellulose (CMC)) 40, 41, 47 [9 of 10 alive], 52, 60, 77 % of control; (dose: 1.0 mg/kg/injection, schedule: Q01DX011 (ip), vehicle: carboxymethylcellulose (CMC)) 10 [8 of 10 alive], 15 (2×), 19, 24, 32 % of control; (dose: 2.0 mg/kg/injection, schedule: Q01DX011 (ip), vehicle: carboxymethylcellulose (CMC)) 2, 3, 4, 16, 17, 25 % of control; (dose: 10.0 mg/kg/injection, schedule: Q01DX011 (ip), vehicle: saline) 4, 5, 7, 7 % of control [9 of 10 alive]; under setting [2], 1 [7 of 10 alive], 1 [9 of 10 alive], 2, 3 % of control [9 of 10 alive]. Also, the survivor count (dose: 20.0 mg/kg/injection, schedule: Q01DX011 (ip), vehicle: carboxymethylcellulose (CMC)) is 3 of 10; the survivor count under setting [2] is 6 of 10; the survivor count under setting [3] is given as 0 of 10; the survivor count (dose: 80.0 mg/kg/injection, schedule: Q01DX011 (oral), vehicle: alkali diluted with saline) is 5 of 10; the survivor count (dose: 160.0 mg/kg/injection, schedule: Q01DX011 (oral), vehicle: alkali diluted with saline) was 2 of 10; the survivor count (dose: 640.0 mg/kg/injection, schedule: Q03DX004 (oral), vehicle: alkali diluted with saline) is on record as 4 of 10. For the same compound, the survivor count (dose: 960.0 mg/kg/injection, schedule: Q07DX002 (oral), vehicle: alkali diluted with saline) is reported as 3 of 10.
For the compound `CC(C)C(=O)OCC1OC(n2cnc3c(=S)nc(N)[nH]c32)C(OC(=O)C(C)C)C1OC(=O)C(C)C` (configuration not stated), the survivor count was 2 of 10 (dose: 6.0 mg/kg/injection, schedule: Q01DX011 (ip), vehicle: saline) and 0 of 10 (dose: 12.0 mg/kg/injection, schedule: Q01DX011 (ip), vehicle: saline).
As to `O=CNC(Cc1ccc(N(CCCl)CCCl)cc1)C(=O)O` (configuration not stated), the survivor count by setting is: (dose: 160.0 mg/kg/injection, schedule: Q01DX011 (ip), vehicle: carboxymethylcellulose (CMC)) 0 of 10; (dose: 320.0 mg/kg/injection, schedule: Q01DX011 (ip), vehicle: carboxymethylcellulose (CMC)) 0 of 10.
With `NNc1nc2nc[nH]c2c(=O)[nH]1`, under setting [4], the survivor count is 2 of 10.
Consider `CS(=O)(=O)OCCC(=O)N1CCN(C(=O)CCOS(C)(=O)=O)CC1`, for which the survivor count (dose: 50.0 mg/kg/injection, schedule: Q01DX011 (ip), vehicle: methylcellulose (MC)) is listed as 1 of 10.
`CCCCOC(=O)C1(N)CCCC1`: the survivor count (dose: 112.0 mg/kg/injection, schedule: Q01DX011 (ip), vehicle: saline) was 6 of 12.
`CNC=O`: the T/C runs as follows: under setting [5], 141 % of control; under setting [4], 129 % of control.
On to `CSc1nc2nc[nH]c2c(=O)[nH]1`, for which the T/C (dose: 75.0 mg/kg/injection, schedule: Q01DX011 (ip), vehicle: carboxymethylcellulose (CMC)) is 131 % of control.
For the compound `CC1CCOS(=O)O1` (configuration not stated), the T/C runs as follows: (dose: 24.0 mg/kg/injection, schedule: Q01DX011 (ip), vehicle: carboxymethylcellulose (CMC)) 139 % of control; (dose: 36.0 mg/kg/injection, schedule: Q01DX011 (ip), vehicle: carboxymethylcellulose (CMC)) 145 % of control [8 of 10 alive]. Besides, the survivor count runs as follows: (dose: 54.0 mg/kg/injection, schedule: Q01DX011 (ip), vehicle: carboxymethylcellulose (CMC)) 6 of 10; (dose: 81.0 mg/kg/injection, schedule: Q01DX011 (ip), vehicle: carboxymethylcellulose (CMC)) 1 of 10.
For `Cn1c(N)nc2nc[nH]c2c1=S`, the T/C is 146 % of control (dose: 8.0 mg/kg/injection, schedule: Q01DX008 (iv), vehicle: saline) and 146 % of control (dose: 16.0 mg/kg/injection, schedule: Q01DX008 (iv), vehicle: saline). The survivor count is given as 5 of 10 (dose: 128.0 mg/kg/injection, schedule: Q01DX008 (iv), vehicle: saline) and 0 of 10 (dose: 256.0 mg/kg/injection, schedule: Q01DX008 (iv), vehicle: saline).
For the compound `CCC(=O)c1cc2c(cc1CC)C(C)(C)CCC2(C)C`, the survivor count under setting [3] was 6 of 10; the survivor count (dose: 100.0 mg/kg/injection, schedule: Q01DX011 (ip), vehicle: carboxymethylcellulose (CMC)) is 2 of 10; the survivor count (dose: 200.0 mg/kg/injection, schedule: Q01DX011 (ip), vehicle: carboxymethylcellulose (CMC)) was 1 of 10; the survivor count (dose: 400.0 mg/kg/injection, schedule: Q01DX011 (ip), vehicle: carboxymethylcellulose (CMC)) was 0 of 10.
Turning to `CCOC(=O)n1cnc2ncnc(N)c21`, the survivor count (dose: 225.0 mg/kg/injection, schedule: Q01DX011 (ip), vehicle: carboxymethylcellulose (CMC)) is given as 0 of 10.
On to `CCCCNc1nc(N)nc2nc[nH]c12`, for which, for the setting “dose: 150.0 mg/kg/injection, schedule: Q01DX011 (ip), vehicle: carboxymethylcellulose (CMC)”, the survivor count is listed as 0 of 10.
For the compound `NNc1ncnc2nc[nH]c12`, the survivor count under setting [6] is 5 of 10 and the survivor count under setting [5] is recorded as 0 of 10.
Take `CN(C)c1ncnc2c1ncn2C1OC(CO)C(N)C1O` (configuration not stated): the survivor count under setting [1] is listed as 5 of 10.
With `c1ncc2[nH]cnc2n1`, the survivor count is reported as 0 of 10 under setting [7] and 0 of 10 under setting [2].
Consider `CCOC(N)=O`, for which the survivor count by setting is: (dose: 500.0 mg/kg/injection, schedule: Q01DX011 (ip), vehicle: saline) 5 of 10; (dose: 800.0 mg/kg/injection, schedule: Q01DX011 (ip), vehicle: saline) 4 of 10; (dose: 1000.0 mg/kg/injection, schedule: Q01DX011 (ip), vehicle: saline) 0 of 10.
Consider `c1cn[nH]c1`, for which the T/C (dose: 16.0 mg/kg/injection, schedule: Q01DX006 (iv), vehicle: saline) is 133 % of control. In addition, for the setting “dose: 100.0 mg/kg/injection, schedule: Q01DX011 (oral), vehicle: saline”, the survivor count is on record as 3 of 10.
Consider `OCC1OC(n2cnc3cncnc32)C(O)C1O` (configuration not stated), for which the survivor count is, setting by setting: under setting [7], 0 of 10; (dose: 25.0 mg/kg/injection, schedule: Q01DX011 (ip), vehicle: saline) 0 of 10.
Consider `Cc1ncc(CO)c(C)c1O`, for which the T/C runs as follows: under setting [6], 127 % of control; under setting [5], 129 % of control; under setting [4], 134 % of control.
